Values from PubChem BioAssay AID602196 (INSERM, 2012)
The deposit covers about 23,000 reagents; this is an unselected part. In the full data, 455 (2%) got an active call. 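Active includes both protection and sensitisation; some change values fall well beyond the stated -50 to +50 range.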 The numbers tell different reagents against one gene apart. Further read-outs or replicates are left out here. Not given: the amount of reagent.

Test: 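Knock-downs that protect lung cancer cells from cisplatin or sensitise them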
Cells: human A549 lung cancer cells
Reagents: siRNA pair against human genes
Timing: 48 h transfection before cisplatin; time from cisplatin to read-out not stated
Treatment: cisplatin at a dose killing half of control-siRNA cells; exact dose and duration not given
Measured: 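Shift in cisplatin death relative to control siRNA, from -50 (all cells die) to +50 (no cells die); siRNAs harmful on their own scored 0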
Scale: two-siRNA summed score (-2 to +2): higher = both siRNAs protect from cisplatin killing; -2 means both sensitise; mean protection from cisplatin (shift in death): higher = protection from cisplatin killing
Hit rule: 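Each siRNA scores 0 if harmful alone by LDH or WST-1, otherwise +1 if it reduces and -1 if it increases cisplatin killing; a gene is active when both siRNAs agree (sum +2 or -2)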
Calls: active = both siRNAs shift cisplatin killing the same way; inactive = no consistent shift, or siRNA harmful alone

no.	gene knocked down	reagent no.	two-siRNA summed score (-2 to +2)	mean protection from cisplatin (shift in death) (%)	outcome
1	CYCS	1	0	2.7	inactive
2	ZNF580	1	0	19.7	inactive
3	LOC388509	1	0	1.1	inactive
4	LOC392197	1	0	-4.4	inactive
5	NFYB	1	0	-0.1	inactive
6	TSHZ3	1	0	5.6	inactive
7	C14orf132	1	0	-3.6	inactive
8	CCDC24	1	0	0.5	inactive
9	GRIP1	1	0	0.7	inactive
10	RPS9	1	0	28.4	inactive
11	DTX3	1	1	14.8	inactive
12	EPB41L1	1	0	-10.9	inactive
13	LOC203069	1	0	10.7	inactive
14	ODF2L	1	0	9.2	inactive
15	LOC441971	1	0	5.9	inactive
16	LOC441354	1	-1	-6.3	inactive
17	LOC442728	1	2	18	active
18	ZC3H10	1	0	18.7	inactive
19	LLGL2	1	0	3.4	inactive
20	LOC390683	1	1	12.4	inactive
21	LOC389624	1	0	-0.9	inactive
22	HTN1	1	1	11.9	inactive
23	ZNF217	1	1	10.7	inactive
24	LOC343066	1	0	-1.4	inactive
25	LOC440008	1	0	20.6	inactive
26	TMEM74B	1	0	0.3	inactive
27	GPR63	1	0	5.7	inactive
28	ATM	1	1	10	inactive
29	LIPM	1	-1	-6	inactive
30	L3MBTL4	1	0	0.8	inactive
31	PIGN	1	-1	-4.2	inactive
32	MFAP4	1	0	-4.1	inactive
33	LOC440588	1	0	9.7	inactive
34	LOC283202	1	0	-0.9	inactive
35	TPD52L3	1	0	3.6	inactive
36	TPD52L3	2	1	16.6	inactive
37	KCNK18	1	0	3.5	inactive
38	TMC6	1	0	9.5	inactive
39	ERICH3	1	0	2.7	inactive

No new results follow: an excerpt of the list.
no.	gene knocked down	reagent no.	two-siRNA summed score (-2 to +2)	mean protection from cisplatin (shift in death) (%)	outcome
28	ATM	1	1	10	inactive
29	LIPM	1	-1	-6	inactive
30	L3MBTL4	1	0	0.8	inactive
31	PIGN	1	-1	-4.2	inactive
